The other results are listed elsewhere or left out.

B1: il2ra_site2_3nfp_sap_13_mot_HHH_b2_05843_000000230_0001_1_19_H_._HHH_b1_07298_0001_0000200016_0000001_0_0001 (protein)
chain: SSSSTAEQAAETLLETLEEEGDEESFEELQELLEKLEETGDPRDALELYELILEIFERLQSSSSS
B2: il2ra_site1_2b5i_sap_10_mot_HHH_b2_04910_000000118_0001_1_19_H_._HHH_b1_07968_af2_0001_0000100002_0000001_0_0001_af2pred_dldesign_0_af2pred (protein)
chain: SSSSSSAKRAEARALIERAKKEKDRRKALLLLNEAYKIAGELDDEELAAEAEELYRQLLSSSSSS
B3: il2ra_site1_1z92_normal_mot_HHH_b1_04329_000000069_0001_1_19_H_._HHH_b2_03912_0001_0000100007_0000001_0_af2pred_0001_af2pred_1 (protein)
chain: SSSSIELIRFADEVVLRLAEEYKLSDEDAQYLAEVAIELIRRGYSEEEIEEILQEEAEKLSSSSS
B4: il2ra_site2_2erj_sap_25_mot_e3be008b04150b5953e9f850c9479793_0001_000000253_0001_15_29_H_._HHH_b1_01649_af2_0001_0001400018_0000001_0_0001 (protein)
chain: SSSSDELRRLYELAVLLAHLLARGDREEAEEVLKEFEELAEELDSRNAEELVERVEKALDSSSSS
B5: il2ra_site2_3nfp_sap_25_mot_HHH_b1_04264_000000089_0001_1_18_H_._HHH_b1_05500_af2_0002_0000100003_0000001_0_0001 (protein)
chain: SVEEVLKELKRSGDPRLQELAEEVEELLRRGIPPEEIIEKLAREAYEENDHDVFAVANSLMKLWA
B6: il2ra_site2_2erj_normal_mot_HHH_b2_02572_000000008_0001_42_59_H_._HHH_b2_06294_0001_0000100005_0000001_0 (protein)
chain: SSSSTEEWEETAKILLRIQEAFEKGNPEEAEELIERLEQELRELGNEELLRYLEYLRRDLSSSSS
B7: il2ra_site1_3nfp_sap_18_mot_HHH_b2_02066_af2_000000034_0001_1_16_H_._HHH_b2_06949_0001_0000600054_0000001_0_0001_af2pred_0001_af2pred (protein)
chain: SSSSSDEERKRALELLFRAAHVSDPEEVKRLLEEALELAEEANNEVTQRRIEIDLRILERSSSSS
B8: il2ra_site2_3nfp_normal_mot_HHH_b1_04031_af2_000000136_0001_1_21_H_._HHH_b1_01430_0001_0000400014_0000001_0 (protein)
chain: SSSSDKEKLERLIELALESLESAGDPEAVRRVEELLEEFREEGDPRYVLEVYEIAREVYEKSSSS
B9: il2ra_site1_2b5i_normal_mot_HHH_b1_02271_000000068_0001_1_16_H_._HHH_b2_07217_0001_0000600035_0000001_0_af2pred_dldesign_0_af2pred (protein)
chain: SSSSEAERLAAEALREAEALKAQGKRREALKVLDEAKKKVDELDDEAAAARLEDYALELFKSSSS
B10: il2ra_site1_1z92_sap_10_mot_ems_4hC_799_0001_000000043_0001_18_33_H_._5202e8ad13ee9de4b1286d7ece000ddb_0001_af2_0001_0000400030_0000001_0_0001 (protein)
chain: SSSSSELEEFAREVVEELVKEFNLSERQQRSLEQLARMAVEMGADEEDIEKALRRFAEFLGSSSS
B11: il2ra_site2_3nfp_normal_mot_HHH_b1_05627_af2_000000038_0001_43_56_H_._HHH_b1_01339_0001_0000600015_0000001_0 (protein)
chain: SSSSDKAEEYVRVALELAEEAIEAGDEESARRQLEAALLLARDLGDPELEERVQELLEELRSSSS
B12: il2ra_site2_2erj_normal_mot_ems_p1-14H-GABBL-16H-GABBL-15H_0014_0001_0001_0001_000000124_0001_40_55_H_._HEEHE_0157_0001_0000100001_0000001_1 (protein)
chain: SDERMFARFLRLNAEHAGVPHVEVEVSNGEVTVTVNGTDEIAELFAHQVEESAKQQGIKVEVEIE
B13: il2ra_site2_3nfp_sap_15_mot_HHH_b1_03316_000000041_0001_39_56_H_._HHH_b1_04942_0001_0000100001_0000001_0_0001_af2pred_0001_af2pred_1_swapped (protein)
chain: SSSSNKEELRILAENAVKAAKELNNDEDARALLLVLLERAEELGNEEVQEFIEELQEEINSSSSS
B14: il2ra_site1_2b5i_sap_17_mot_143f78fc0439b137266e145e81963a82_0001_1_af2_000000250_0001_37_51_H_._2548690152cc24afdf538b66510d0e06_0001_0001_0000200012_0000001_0 … (protein)
chain: SSSSDEKYDEVERLFKKALELRRAGKKEEAKEVLEEALKIAEEAKDEKLVEELKRFLELLSSSSS
B15: il2ra_site2_2erj_sap_18_mot_66c2fca85847babee3b8944584cfd08f_0001_1_000000223_0001_16_30_H_._HEEHE_2538_0001_0000200008_0000001_0_0001 (protein)
chain: YEFLHILMQVLAAIPDPEESHELLEELHELAAEGDKKEAIELALRVAEELGNPELAKELEKLLEP
B16: il2ra_site1_2b5i_normal_mot_HHH_b2_01594_000000003_0001_41_55_H_._HHH_b1_06536_0001_0000100004_0000001_0_af2pred_dldesign_0_af2pred (protein)
chain: SSSSPEFKELYEKTLELLEEGRLEEARKLLDELDDLAKEADDPEALKKVNELIKRLYRVEKSSSS
B17: il2ra_site1_1z92_sap_19_mot_01209686ea234b34325f918445e6eade_0001_af2_000000144_0001_18_33_H_._8eb524b276bbb897fd8f0cca34c37a2d_0001_0001_0000100003_0000001_0_0 … (protein)
chain: SSSSDELFERLDELWEEAQEAKKRGNPEEAKELLEEAIKIAEELGDEHLLRQLEQALRLVRSSSS
B18: il2ra_site1_1z92_normal_mot_54e474eed2d0515e81978198f0f96ec2_0001_000000202_0001_15_30_H_._15f70e71ac3214bf43105af5abf4654e_0001_1_af2_0001_0000200012_0000001_0 … (protein)
chain: DEEAARKDLQRALELGIPPRSVVLAVLRALERDLGDPEEALEVIERAIELLNDPELREVVEKLKP

This assay concerns the target il2ra, P01589. Kind of assay: yeast display titration.
For the molecule B1, the “apparent Kd” value was “inactive: no binding seen”.

B2: the “apparent Kd” value was “inactive: no binding seen”.

As for B3, the “apparent Kd” value is “inactive: no binding seen”.

Regarding B4, the “apparent Kd” value was “inactive: no binding seen”.

Turning to B5, the “apparent Kd” value is “inactive: no binding seen”.

Regarding B6, the “apparent Kd” value is “inactive: no binding seen”.

As for B7, the “apparent Kd” value is “inactive: no binding seen”.

For B8, the “apparent Kd” value was “inactive: no binding seen”.

For B9, the “apparent Kd” value was “inactive: no binding seen”.

Consider B10, for which the “apparent Kd” value is “inactive: no binding seen”.

Consider B11, for which the “apparent Kd” value is “inactive: no binding seen”.

In the case of B12, the “apparent Kd” value is “inactive: no binding seen”.

On to B13, for which the “apparent Kd” value was “inactive: no binding seen”.

As for B14, the “apparent Kd” value is “inactive: no binding seen”.

Regarding B15, the “apparent Kd” value is “inactive: no binding seen”.

With B16, the “apparent Kd” value is “inactive: no binding seen”.

For the molecule B17, the “apparent Kd” value is “inactive: no binding seen”.

In the case of B18, the “apparent Kd” value was “inactive: no binding seen”.

Values taken from PMC10163288.
